Measurements reported in patent US20220056146A1.
Results are given in words; binding and its absence hold for the method and conditions named. Some binding calls cover weakened binding; strength is not graded here.

Biological target: T1, PVR (CD 155) as cell membrane receptor in the binding assay with over 5000 membrane receptors (UniProt P15151)
T1 sequence (looked up): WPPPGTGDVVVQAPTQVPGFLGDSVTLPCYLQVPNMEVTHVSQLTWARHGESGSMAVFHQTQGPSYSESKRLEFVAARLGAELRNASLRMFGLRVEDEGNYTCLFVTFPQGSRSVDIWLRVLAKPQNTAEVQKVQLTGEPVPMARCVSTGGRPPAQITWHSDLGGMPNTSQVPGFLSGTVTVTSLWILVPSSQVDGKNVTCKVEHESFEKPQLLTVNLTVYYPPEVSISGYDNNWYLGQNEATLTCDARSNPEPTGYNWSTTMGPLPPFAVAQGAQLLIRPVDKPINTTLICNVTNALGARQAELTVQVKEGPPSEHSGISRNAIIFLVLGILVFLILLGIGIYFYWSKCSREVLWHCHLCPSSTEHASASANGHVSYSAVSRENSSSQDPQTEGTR
Assay: binding assay on over 5000 membrane receptors, inverse hit

binding: binds
B1: CD 226 (DNAM 1) as cell membrane receptor (receptor, UniProt Q15762 19-336, looked up)
chain: EEVLWHTSVPFAENMSLECVYPSMGILTQVEWFKIGTQQDSIAIFSPTHGMVIRKPYAERVYFLNSTMASNNMTLFFRNASEDDVGYYSCSLYTYPQGTWQKVIQVVQSDSFEAAVPSNSHIVSEPGKNVTLTCQPQMTWPVQAVRWEKIQPRQIDLLTYCNLVHGRNFTSKFPRQIVSNCSHGRWSVIVIPDVTVSDSGLYRCYLQASAGENETFVMRLTVAEGKTDNQYTLFVAGGTVLLLLFVISITTIIVIFLNRRRRRERRDLFTESWDTQKAPNNYRSPISTSQPTNQSMDDTREDIYVNYPTFSRRPKTRV
